Reference: patent US20260152567A1 (CSPC MEGALITH BIOPHARMACEUTICAL, published 2026)
Substitutions are numbered along the chain they refer to. These are yes or no findings as the source states them, for the method shown. Some results given as binding are weak or reduced against the parent protein; the word gives no strength.

B1: Hab7C3C2.5 (antibody, human IgG1, kappa, L234A L235A, V domains shown)
VH: QVQLVQSGAEVKKPGASVKVSCKASGYTFTSYDINWVRQATGQGLEWIGWIYPRDGFTKYNEKFKGRVTLTVNTSISTAYMELSSLRSEDTAVYYCARKEGYRGDWYFDVWGQGTTVTVSS
VL: DIQMTQSPSSLSASVGDRVTITCRASGNVHNYLAWYQQKPGKAPKLLLYNAKTLASGVPSRFSGSGSGTDYTLTISSLQPEDFATYYCQHFWSTPWTFGGGTELEIKR
notes: Humanized 7C3C2; also called Hab7C3C.5
B2: Hab7C3C2.9 (antibody, human IgG1, kappa, L234A L235A, V domains shown)
VH: B1 VH with I48M, N61A, E62Q, K65Q, L70I
VL: B1 VL
notes: Humanized 7C3C2; also called Huab7C3C.9
B3: Hab1F2F9.12 (antibody, human IgG1, kappa, L234A L235A, V domains shown)
VH: QVQLVQSGAEVKKPGASVKVSCKASGYTFTSYWMHWVRQAPGQRLEWMGNINPSNGGTKYNEKFQGRVTITVDTSASTAYMELSSLRSEDTAVYYCARRDYGSPSYWGQGTTVTVSS
VL: DIQMTQSPSSLSASVGDRVTITCKASQDINSYLTWFQQKPGKAPKSLIYRTNILLDGVPSRFSGSGSGTDYTLTISSLQPEDFATYYCLQYHEFPVTFGGGTKLEIKR
notes: Humanized 1F2F9; also called Huab1F2F9.12
B4: Hab1F2F9.15 (antibody, human IgG1, kappa, L234A L235A, V domains shown)
VH: B3 VH with N61S, E62Q
VL: B3 VL
notes: Humanized 1F2F9; also called Huab1F2F9.15; HuablF2F9.15

biological target: cynomolgus monkey CD73 protein (cynomolgus monkey); assay: BLI (Fortebio), cynomolgus CD73 on HIS1K biosensors, antibody as analyte

Row | Binder | binding
1 | B1 | binds
2 | B2 | binds
3 | B3 | binds
4 | B4 | binds

biological target: cynomolgus monkey full-length CD73 on CHO-K1 cells (cynomolgus monkey); assay: flow cytometry on CHO-K1 cells expressing monkey full-length CD73

Row | Binder | binding
5 | B1 | binds
6 | B4 | binds
